Literature values as cited in patent US7687487B2, “Camptothecin-analog with a novel, “flipped” lactone-stable, E-ring and methods for making and using same” (BioNumerik Pharmaceuticals, Inc., priority 2007, dated 2010).
At least one compound was matched to its structure with a doubt left.

In the case of `CC[C@@](O)(C(=O)O)c1cc2n(c(=O)c1CO)Cc1cc3ccccc3nc1-2` [carboxylate form of CPT], the “anti-tumor potency relative to original, non-hydrolyzed lactone form of CPT” value is listed as “one-tenth or less”.
